The values below come from PubChem BioAssay AID188 (DTP/NCI, 2004).

The subject of the experiment is CD2F1 mice, nontumored, toxicity/survival. Briefly: NCI In Vivo Anticancer Drug Screen. Data for tumor model Nontumored Animals (Toxicity Test) in CD2F1 (CDF1) mice.
The mark [1] stands for this setting: dose: 1.0 mg/kg/injection, schedule: Q01DX001 (ip), vehicle: DMSO.
Where [2] appears, read: dose: 10.0 mg/kg/injection, schedule: Q01DX001 (ip), vehicle: DMSO.
Where [3] appears, read: dose: 100.0 mg/kg/injection, schedule: Q01DX001 (ip), vehicle: DMSO.

Values are animals surviving of animals treated; these mice carried no tumour. Counts of survivors are from the toxicity check (mostly the fifth day) where no day follows; animals may have died later. Schedule codes are those of the source, read here as Q, the interval in days (D) or hours (H), X, the number of doses. Brackets with × stand for listed records that agree. Some doses were run more than once; their values stand side by side, smallest first.

On to `CC(C)CC(NC(=O)C(N)Cc1ccc(N(CCCl)CCCl)cc1)C(=O)O` (centres undefined), for which the survivor count reads like this: (dose: 1.0 mg/kg/injection, schedule: Q04DX003 (ip), vehicle: saline with Tween-80) 8 of 8; (dose: 2.0 mg/kg/injection, schedule: Q04DX003 (ip), vehicle: saline with Tween-80) 8 of 8; (dose: 3.7 mg/kg/injection, schedule: Q04DX003 (ip), vehicle: saline with Tween-80) 8 of 8; (dose: 4.0 mg/kg/injection, schedule: Q04DX003 (ip), vehicle: saline with Tween-80) 8 of 8; (dose: 5.6 mg/kg/injection, schedule: Q04DX003 (ip), vehicle: saline with Tween-80) 8 of 8 (2×); (dose: 8.0 mg/kg/injection, schedule: Q04DX003 (ip), vehicle: saline with Tween-80) 8 of 8 (2×). The survivor count is, setting by setting: (dose: 8.4 mg/kg/injection, schedule: Q04DX003 (ip), vehicle: saline with Tween-80) 8 of 8 (2×); (dose: 12.6 mg/kg/injection, schedule: Q04DX003 (ip), vehicle: saline with Tween-80) 8 of 8 (2×); (dose: 16.0 mg/kg/injection, schedule: Q04DX003 (ip), vehicle: saline with Tween-80) 6 of 8 and 8 of 8 (2×); (dose: 18.9 mg/kg/injection, schedule: Q04DX003 (ip), vehicle: saline with Tween-80) 8 of 8 (2×); (dose: 28.4 mg/kg/injection, schedule: Q04DX003 (ip), vehicle: saline with Tween-80) 8 of 8 (2×); (dose: 32.0 mg/kg/injection, schedule: Q04DX003 (ip), vehicle: saline with Tween-80) 6 of 8 and 8 of 8. The survivor count is 8 of 8 (2×) (dose: 42.6 mg/kg/injection, schedule: Q04DX003 (ip), vehicle: saline with Tween-80); 2 of 8, 6 of 8, 8 of 8 (dose: 64.0 mg/kg/injection, schedule: Q04DX003 (ip), vehicle: saline with Tween-80); 8 of 8 (dose: 96.0 mg/kg/injection, schedule: Q04DX003 (ip), vehicle: saline with Tween-80); 0 of 8 and 4 of 8 (dose: 128.0 mg/kg/injection, schedule: Q04DX003 (ip), vehicle: saline with Tween-80); 0 of 8 and 1 of 8 (dose: 256.0 mg/kg/injection, schedule: Q04DX003 (ip), vehicle: saline with Tween-80).

For `Nc1nc(N)nc(CCC(Br)(Br)Br)n1`, the survivor count runs as follows: (dose: 1.0 mg/kg/injection, schedule: Q01DX001 (ip), vehicle: distilled water + Tween-80) 2 of 2; (dose: 10.0 mg/kg/injection, schedule: Q01DX001 (ip), vehicle: distilled water + Tween-80) 2 of 2; (dose: 100.0 mg/kg/injection, schedule: Q01DX001 (ip), vehicle: distilled water + Tween-80) 2 of 2.

With `CC(=O)Nc1nc(Br)c2ccccc2c1-c1ccc(N(CCO)CCOS(=O)(=O)c2ccc(C)cc2)cc1`, the survivor count is on record as 2 of 2 under setting [1], 2 of 2 under setting [2] and 2 of 2 under setting [3].

For the compound `Nc1nc(N)c2nc(CSc3ccc(C(=O)NC(CCC(=O)O)C(=O)O)cc3)cnc2n1` (centres undefined), the survivor count (dose: 1.0 mg/kg/injection, schedule: Q01DX001 (ip), vehicle: water) was 2 of 2; the survivor count (dose: 10.0 mg/kg/injection, schedule: Q01DX001 (ip), vehicle: water) is 2 of 2; the survivor count (dose: 100.0 mg/kg/injection, schedule: Q01DX001 (ip), vehicle: water) is 2 of 2.

Turning to `COc1ccc2c(c1O)-c1cc(O)cc3c1C(C2)NCC3` (centres undefined), the survivor count runs as follows: under setting [1], 2 of 2; under setting [2], 0 of 2; under setting [3], 0 of 2.
